In patent US8148426B2, “Bis(thio-hydrazide amides) for increasing Hsp70 expression” (Synta Pharmaceuticals Corp., priority 2004, dated 2012):

Experiment: Tissue distribution in SW female mice, intravenous (Example 1)
Format: in vivo
Details: mouse, brain, 25 mg/kg, second experiment, with negative control atenolol, read-out: brain concentration as % of plasma concentration
Experimental: Plasma samples were prepared by combining 50 μL plasma+50 μL 1% dithiothreitol (DTT)+150 μL CH3CN (0.1% HCOOH), centrifuged at 10,000 rpm×5 min; 150 μL supernatant+90 μL H2O. Tissue samples were prepared by homogenizing a weighed tissue sample in phosphor-buffered saline (PBS, ×1)+1% DTT (×1)+CH3CN (0.1% HCOOH) (×3)), centrifuged at 10,000 rpm×5 min; 150 μL supernatant+90 μL H2O. […] The running time was 15 min.

Kp at 30 min: 0.04
SMILES: CC(C)NCC(O)COc1ccc(CC(N)=O)cc1 (stereo not shown) [atenolol, reference compound]
